The values below come from PubChem BioAssay AID445 (National Center for Advancing Translational Sciences (NCATS), 2006).

This is one part of the list. The main result of the screen is listed elsewhere. These columns were measured beside it and carry no call. Compounds called inactive in the main read-out are mostly missing here. Words in brackets tell the shape of the fitted curve; partial curves, single points and poor fits give uncertain potencies.

The nature of this assay: IkB Signaling. As to conditions: ABC-DLBCL IkBa-CBG/CBR dual luciferase ratio (green luciferase fused to IkBa over red control in OCI-Ly3 lymphoma cells), 4 h. In outline:
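In this assay, an IκBα–CBG68 fusion accumulates when IKK-driven degradation is blocked; native CBR normalizes for cell number. OCI-Ly3 cells were treated 4 h with compound and doxycycline, then green and red light read after Chroma-Glo addition.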

The mark [1] stands for this setting: measured here: control luc red channel unless noted.
[2] abbreviates: measured here: IkB-luc green channel.
The mark [3] stands for this setting: measured here: control luc red channel.

Take `CCn1c(SCC(=O)N2CCCc3ccccc32)nc2ccccc2c1=O`: the AC50 (in general, the midpoint of the concentration-response curve, whichever way the signal moves) under setting [1] is 20 µM [falling, partial curve].

With `CN1C(=O)C2(Nc3ccccc3-c3nc4ccccc4n32)c2ccccc21` (stereo not given), the AC50 under setting [1] was 15.8 µM [falling, partial curve].

As for `Cc1ccc(C)c(N2CCN(C(=O)c3cc4cc5ccc(C)cc5nc4s3)CC2)c1`, the half-maximal activity concentration (AC50) under setting [1] was 39.8 µM [falling, single point].

`Nc1ccc(CCNc2ncnc3c2ncn3[C@@H]2O[C@@H](CO)[C@H](O)[C@@H]2O)cc1`: the AC50 under setting [2] was 3.16 µM [rising, full curve, poor fit] and the half-maximal activity concentration (AC50) under setting [3] was 2.51 µM [rising, full curve].

Regarding `COc1ccc(-c2cc(OC(=O)c3ccc(F)cc3)c3c(C)oc(C)c3c(=O)c2)cc1OC`, the AC50 under setting [1] was 6.31 µM [falling, single point].

Consider `Cc1ccc(Cc2c(C)nn(-c3nc(C)c(C(=O)N4CCCCC4C)s3)c2C)cc1` (stereo not given), for which, under setting [1], the AC50 is 25.1 µM [falling, single point].

Consider `COc1ccc(-c2noc(CSc3nnc(-c4ccccc4)n3-c3ccc(F)cc3)n2)c(OC)c1`, for which the AC50 under setting [1] is 39.8 µM [falling, single point].

`O=C(Nc1ccc(-c2nc3ccccc3[nH]2)cc1)C1CCCO1` (stereo not given): the AC50 under setting [1] is 15.8 µM [falling, partial curve].

On to `O=C(CCCc1ccccc1)N1CCc2ccccc21`, for which the AC50 under setting [1] was 7.94 µM [falling, partial curve].

In the case of `c1ccc(-c2oc3ncnc(NCCN4CCOCC4)c3c2-c2ccccc2)cc1`, the half-maximal activity concentration (AC50) is 31.6 µM [falling, partial curve] under setting [2] and 25.1 µM [falling, single point] under setting [3].

For `COC(=O)c1sccc1S(=O)(=O)N(CC(=O)NCc1ccccc1)c1ccc(C)c(C)c1`, the AC50 under setting [1] is 31.6 µM [falling, single point].

For the compound `CCOC(=O)c1c(C)c(-c2ccccc2)n(CC(=O)Nc2cccc(F)c2)c1C`, the AC50 under setting [1] was 20 µM [falling, single point].

Turning to `COc1ccc(NC(=O)CSc2nnc3scc(-c4ccc(Cl)cc4)n23)cc1`, under setting [1], the AC50 was 39.8 µM [falling, single point].

Turning to `COCCOc1ccc(C(F)(F)F)cc1Nc1nc2ccccc2o1`, the AC50 under setting [1] is 3.16 µM [falling, partial curve].

`Cc1ccc(S(=O)(=O)N(CC(=O)N2CCc3ccccc3C2)c2ccc(C)c(C)c2)cc1`: the AC50 under setting [1] was 5.01 µM [falling, partial curve].

For the compound `O=C(Nc1noc2ccccc12)c1c(F)cccc1F`, the concentration at half-maximal activity (AC50) under setting [1] is 2 µM [rising, partial curve, poor fit].

As to `CCOC(=O)c1ccccc1NC(=O)N1CCCN(S(=O)(=O)c2ccc3c(ccn3CC)c2)CC1`, the AC50 under setting [1] is 10 µM [falling, partial curve, poor fit].

Regarding `CCOc1ccc(-c2nc3c(C#N)c[nH]n3c2NC2CCCCC2)cc1`, the AC50 under setting [1] was 25.1 µM [falling, single point].

For `O=C(Nc1cc(F)ccc1F)c1ccc2c(c1)nnn2C1CCCC1`, the half-maximal activity concentration (AC50) under setting [1] was 1.26 µM [rising, partial curve].

On to `CCCC(=O)Nc1cc(C(=O)NCc2ccc(OC)cc2)ccc1S(=O)(=O)c1ccc(Cl)cc1`, for which the half-maximal activity concentration (AC50) under setting [1] was 39.8 µM [falling, single point].

Turning to `Cc1cc(C)n(-c2nnc(Nc3ccc(C(C)C)cc3)c3ccccc23)n1`, under setting [1], the half-maximal activity concentration (AC50) was 39.8 µM [falling, single point].

As for `CC(=O)c1ccc(NC(=O)C2=CC(c3cccs3)=NS(=O)(=O)N2C)cc1`, the AC50 under setting [1] is 25.1 µM [falling, single point].

As to `COc1cc(Nc2nc(SCc3cccc(Cl)c3)nc3ccccc23)cc(OC)c1`, the AC50 under setting [1] was 10 µM [falling, single point].

Take `Cc1nc2c(c(C)nn2-c2ccccc2)c(C)c1CCC(=O)Nc1ccc(F)cc1`: the AC50 under setting [1] is 12.6 µM [falling, partial curve].

Take `Cc1ccc2nc(-c3ccc(NC(=O)C(F)(F)F)cc3)sc2c1`: under setting [1], the AC50 is 0.2 µM [rising, full curve].

As to `Fc1ccc(Nc2c3c(nc4nncn24)CCC3)cc1`, the half-maximal activity concentration (AC50) under setting [1] was 6.31 µM [rising, single point].

Turning to `Cc1[nH]c2ccccc2c1C(O)CN1CCN(c2cccc(C(F)(F)F)c2)CC1` (stereo not given), under setting [1], the concentration at half-maximal activity (AC50) was 12.6 µM [falling, partial curve].

In the case of `Cc1cc(C(=O)CN2C(=O)NC3(CCCCC3)C2=O)c(C)n1Cc1ccc2c(c1)OCO2`, under setting [1], the concentration at half-maximal activity (AC50) was 31.6 µM [falling, single point].

For the compound `Cc1nc2nc(NC(=O)c3ccc(F)cc3)[nH]n2c(=O)c1Cc1ccccc1`, under setting [1], the half-maximal activity concentration (AC50) is 12.6 µM [falling, single point].

In the case of `O=C(NCc1ccccc1F)C1CCN(Cc2cc3ccccc3n2Cc2cccc(Cl)c2)CC1`, under setting [1], the concentration at half-maximal activity (AC50) was 3.98 µM [falling, full curve, poor fit].

Regarding `Cc1c(C(=O)OC2CCCCC2)[nH]c2c1C(=O)CC(c1ccccc1Cl)C2` (stereo not given), the AC50 under setting [1] is 5.01 µM [falling, partial curve].

With `Cc1ccccc1NC(=O)Nc1ccc2nc(N3CCN(C)CC3)cc(C)c2c1`, the half-maximal activity concentration (AC50) under setting [1] was 10 µM [falling, partial curve, poor fit].

As to `Cn1c(=O)oc2cc(S(=O)(=O)CCC(=O)NCCc3ccccc3)ccc21`, the concentration at half-maximal activity (AC50) under setting [1] was 39.8 µM [falling, single point].

In the case of `Cc1cccn2c(=O)c(/C=C(\C#N)c3nc4ccccc4s3)c(Oc3ccc(Br)cc3)nc12`, the AC50 was 39.8 µM [rising, single point] under setting [2] and 1.58 µM [falling, full curve] under setting [3].

Turning to `CCOCCc1nnc(NC(=O)C(=O)c2cc(C)n(-c3cccc(C)c3)c2C)s1`, under setting [1], the AC50 is 31.6 µM [falling, single point].

`Cc1ccc(-c2noc(CNC(=O)COc3cc(C)c(Br)c(C)c3)n2)cc1`: the AC50 under setting [1] was 15.8 µM [falling, partial curve, poor fit].

As to `O=C(NC1CCCCC1)c1ccc2c(c1)sc1nc(-c3ccc(F)cc3)cn12`, the concentration at half-maximal activity (AC50) under setting [1] was 25.1 µM [falling, single point].

Consider `O=C(Nc1ccc2c(c1)OCCO2)NC1CCCCC1`, for which the AC50 under setting [1] is 10 µM [falling, partial curve].

On to `Cc1ccc(-n2nc(C(=O)N3CCN(c4ccc(F)cc4)CC3)c(=O)n(C)c2=O)cc1`, for which, under setting [1], the AC50 was 0.794 µM [falling, full curve].

Turning to `OC(COc1cccc2ccccc12)CN1CCN(c2ccccn2)CC1` (stereo not given), the AC50 under setting [1] is 10 µM [falling, partial curve].

As for `Cc1ccc(NC(=O)CSc2nc3ccc(Br)cc3[nH]2)c(C)c1`, under setting [1], the AC50 is 25.1 µM [falling, single point].

For `CC1CCN(C(=O)CSc2c3c(nc4ccc(Cl)cc24)CCCC3)CC1`, the half-maximal activity concentration (AC50) under setting [1] was 12.6 µM [falling, partial curve].

As for `CCOc1ccc(N(Cc2ccccc2)C(=O)c2nc(SCC)ncc2Cl)cc1`, the AC50 under setting [1] is 15.8 µM [falling, single point].

On to `Cc1cccc(NC(=O)CSc2nc3ccccc3nc2N2CCC(C)CC2)c1`, for which the AC50 under setting [1] was 20 µM [falling, partial curve].

On to `COc1ccc(S(=O)(=O)N(CC(=O)Nc2ccc(F)c(Cl)c2)c2ccc(C)cc2)cc1OC`, for which, under setting [1], the AC50 is 7.94 µM [falling, partial curve].

For the compound `O=C(Nc1cccc(Cn2cccn2)c1)c1cc2c(s1)CCCC2`, the AC50 by setting is: under setting [2], 39.8 µM [falling, single point]; under setting [3], 15.8 µM [falling, partial curve].

On to `O=C(c1cnn2c1NC(c1ccco1)CC2C(F)(F)F)N1CCN(c2cccc(Cl)c2)CC1` (stereo not given), for which, under setting [1], the AC50 was 10 µM [falling, partial curve].

Turning to `CCOc1ccc(N(CC(=O)Nc2ccc3c(c2)OCCO3)S(=O)(=O)c2c(C)noc2C)cc1`, the half-maximal activity concentration (AC50) under setting [1] is 10 µM [falling, partial curve].

In the case of `Cn1cnc2c(NCc3ccccc3)nc(NCCO)nc21`, the AC50 under setting [1] was 39.8 µM [falling, partial curve, poor fit].

For `Cc1cccc(CSc2nc3c(c(=O)[nH]2)CCC3)c1`, under setting [1], the AC50 was 0.2 µM [falling, full curve].

For the compound `CCc1ccc(C2CC(=O)c3c([nH]c(C(=O)OC4CCC(C)CC4)c3C)C2)cc1` (stereo not given), the AC50 under setting [1] was 0.2 µM [rising, full curve, poor fit].

Consider `COc1ccc(S(=O)(=O)NCc2cccn2Cc2cccc(C)c2)cc1Cl`, for which the half-maximal activity concentration (AC50) under setting [1] was 39.8 µM [falling, single point].

On to `COc1cccc(C(=O)Nc2ccc(NC(=O)C3CC3)cn2)c1`, for which the AC50 under setting [1] was 12.6 µM [falling, partial curve].

As for `CCS(=O)(=O)N1CCc2cc(C(=O)N3CCN(c4ccc(OC)cc4)CC3)ccc21`, the AC50 under setting [1] was 12.6 µM [falling, partial curve].

Consider `COc1ccc(OC)c(S(=O)(=O)N2Cc3ccccc3CC2C(=O)Nc2ccc(C)cc2C)c1` (stereo not given), for which the half-maximal activity concentration (AC50) under setting [1] is 25.1 µM [falling, single point].

With `COc1ccc(-c2nc(SCC(=O)Nc3ccccc3)c(-c3ccc(F)cc3)[nH]2)cc1OC`, under setting [1], the half-maximal activity concentration (AC50) was 12.6 µM [falling, partial curve].

`COC(=O)c1ccc(CSc2nc3c([nH]c4ccccc43)c(=O)n2-c2ccc(F)cc2)o1`: under setting [1], the AC50 is 25.1 µM [rising, single point].

In the case of `CCc1cccc(NC(=O)Cn2c(=O)n(-c3ccccc3C)c(=O)c3c2c2cc(C)ccc2n3C)c1`, the AC50 under setting [1] is 1.26 µM [falling, full curve].

For the compound `Cc1ccc(Cl)cc1-n1c(CCC(=O)O)ccc1-c1cccs1`, the half-maximal activity concentration (AC50) under setting [1] was 5.01 µM [falling, partial curve].

For the compound `Cc1ccccc1CN1CCc2nc(N3CCN(c4ncccn4)CC3)ncc2C1`, the concentration at half-maximal activity (AC50) under setting [1] is 39.8 µM [falling, single point].

With `Cc1ccc(CNC(=O)c2ccc(CS(=O)(=O)Cc3ccc(F)cc3)o2)cc1`, the AC50 under setting [1] was 0.01 µM [rising, full curve].
